The structures given here were assigned with low confidence; some may be wrong.
Molecular target: Akt3 (Homo sapiens, UniProt Q9Y243)
Assay: Akt3 inhibition and activation activity (Foxp3 induction assay / Jurkat-FoxP3 luciferase reporter assay)
Conditions: read-out: Akt3 activation activity EC50; Table 2

The chains behind the UniProt entries cited, without tags or fusion partners. Residues count along the entry.
UniProt Q9Y243, 2-479 limits assumed: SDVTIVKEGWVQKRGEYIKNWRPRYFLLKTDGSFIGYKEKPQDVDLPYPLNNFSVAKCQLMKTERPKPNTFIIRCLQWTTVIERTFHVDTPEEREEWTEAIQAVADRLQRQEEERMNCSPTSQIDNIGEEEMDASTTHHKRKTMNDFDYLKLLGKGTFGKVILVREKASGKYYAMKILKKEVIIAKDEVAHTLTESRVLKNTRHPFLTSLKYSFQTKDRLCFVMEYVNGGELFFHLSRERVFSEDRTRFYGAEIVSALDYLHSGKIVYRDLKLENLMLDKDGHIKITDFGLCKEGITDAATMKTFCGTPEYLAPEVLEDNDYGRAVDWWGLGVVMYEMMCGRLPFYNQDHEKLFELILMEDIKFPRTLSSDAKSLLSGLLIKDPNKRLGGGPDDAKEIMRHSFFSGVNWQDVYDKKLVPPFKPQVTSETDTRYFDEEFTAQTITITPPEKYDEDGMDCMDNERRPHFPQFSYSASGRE

Row | SMILES | EC50 [µM]
1 | Cc1cc(Nc2ccncc2)ccc1NC(=O)c1ccc(Nc2ccnc3ccc(C#N)cc23)cc1 | < 2
2 | Cc1cc(Nc2ccc3[nH]c(-c4ccc(Nc5ccnc6ccc(N7CCOCC7)cc56)cn4)nc3c2)ccn1 | < 0.02
